This is an account of results in publication PMC4702122, “Embelin binds to human neuroserpin and impairs its polymerisation” (Scientific Reports, 2016).

The target of assay [1] is T1, Neuroserpin (SERPINI1), wild type, uncleaved (human) (UniProt Q99574).
T1 sequence (chain, N-terminal initial formylmethionine (calculated mass 46285 Da)): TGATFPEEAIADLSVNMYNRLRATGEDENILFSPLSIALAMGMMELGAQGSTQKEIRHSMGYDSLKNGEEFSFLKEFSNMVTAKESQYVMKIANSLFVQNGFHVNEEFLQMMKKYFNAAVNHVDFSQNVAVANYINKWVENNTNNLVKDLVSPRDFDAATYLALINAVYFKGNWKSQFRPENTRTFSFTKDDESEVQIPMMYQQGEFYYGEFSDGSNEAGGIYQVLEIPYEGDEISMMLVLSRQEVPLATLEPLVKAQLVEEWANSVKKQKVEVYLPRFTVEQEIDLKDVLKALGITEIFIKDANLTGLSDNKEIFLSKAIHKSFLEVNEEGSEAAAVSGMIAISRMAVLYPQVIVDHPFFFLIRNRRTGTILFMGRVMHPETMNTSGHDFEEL
The assay can be described thus: SEC; Nat (4 mg/ml) with 1.5 mM (saturated) EMB overnight at 4, 20, 37, 45, 55 °C; Superdex200 10/300 GL, 10 mM Tris HCl, 50 mM KCl, pH 8.0; fractions also by SDS-PAGE; both purified.

In assay [2] the target is tissue plasminogen activator, active two-chain form (2ctPA). The assay can be described thus: SDS-PAGE of the covalent acyl-enzyme complex; Nat (2.4 μM) with 2ctPA (0.4 μM), 6:1, 1-120 min, 25 °C, 50 mM Tris, 10 mM Na2HPO4, 150 mM NaCl, 0.1% Tween, pH 7.4; SYPRO Ruby; both purified.
Assay [3] shares this target. The assay is described as follows: condition: only NS as SEC-purified monomeric or dimeric NS/EMB complex (2.4 μM NS, 0.4 μM 2ctPA); SDS-PAGE of the covalent acyl-enzyme complex; SEC-purified monomeric or dimeric NS/EMB complex (2.4 μM) with 2ctPA (0.4 μM), 6:1, 1-120 min, 25 °C, 50 mM Tris, 10 mM Na2HPO4, 150 mM NaCl, 0.1% Tween, pH 7.4; SYPRO Ruby; both purified.

Results are given in words; binding and its absence hold for the method and conditions named. For part of these data: A result given as binding can be weak or reduced; the word gives no strength.

On to Cleaved neuroserpin (Cle) (human), for which the binding result in assay [1] was “no binding”.

B1: Neuroserpin (SERPINI1), wild type, uncleaved (protein, UniProt Q99574 17-410)
chain: T1 sequence (chain, N-terminal initial formylmethionine (calculated mass 46285 Da))
modifications: N-terminal initial formylmethionine (calculated mass 46285 Da)
For the molecule B1, the binding result was “binds” in assay [2] and “no binding” in assay [3].
